# According to PubChem BioAssay AID504834 (National Center for Advancing Translational Sciences (NCATS), 2011):
# About 22,000 (6.9%) of roughly 320,000 compounds were called active. The shares of active, inactive and inconclusive entries below differ from those in the screen. Calls follow the shape of the dose curve; as a rule, active = well fitted inhibition curve with a large enough effect; inconclusive = small, poorly fitted or top-dose-only effect, or another doubt; inactive = no such curve, though single readings can be large or run the other way. Potencies beside an inconclusive call are fits to weak or partial responses and may not hold up.
# Assay: Primary qHTS for delayed death inhibitors of the malarial parasite plastid, 96 hour incubation
# Details: P. falciparum luciferase reporter growth; series mostly up to 28.7 µM
# Method in brief: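 Parasite growth measured via integrated firefly luciferase reporter in P. falciparum. Infected erythrocytes at 2% hematocrit, 0.05% parasitemia final were treated 96 hours at 37 C under 5% CO2, and luminescence was read.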
# Potency is read from the fitted curve at half-maximal effect.
row,Structure (SMILES),Potency
1,CCOc1ccc(NC(=O)CN2CCN(C3c4ccccc4-c4ccccc43)CC2)cc1,inactive
2,CCCCCN(C(=O)NC(=O)Nc1ccccc1C)S(C)(=O)=O,"inconclusive: 18.5 µM [inhibitor, single point]"
3,CCOC(=O)c1nnn(CC(=O)N2N=C(c3cc(C)ccc3C)CC2c2ccc(OC)cc2)c1C(=O)OCC (stereo not drawn),active: 9.28 µM
4,CCN1CCN(Cc2ccc(NC(=O)c3cc(NC(=O)c4cnn(-c5ccccc5)c4N)cc(OC)c3)cc2C(F)(F)F)CC1,active: 0.828 µM
5,COc1ccc(C)cc1-n1nnnc1SC/C(O)=C(\C#N)c1nc2ccccc2[nH]1,"inconclusive: 0.586 µM [inhibitor, full curve, poor fit]"
6,O=C(CSc1nnc2scc(-c3ccccc3)n12)Nc1nsc(-c2ccccc2)n1,inactive
7,O=C(CN1CCN(C(c2ccccc2)c2ccccc2)CC1)N1N=CCC1c1ccccc1 (stereo not drawn),active: 11.7 µM
8,CCOC(=O)c1sc(NC(=O)CSc2nc3cccnc3n2C)nc1C,"inconclusive: 7.38 µM [inhibitor, partial curve, poor fit]"
9,COc1ccc(S(=O)(=O)NC(C)C(=O)N2CCCC2)cc1C (stereo not drawn),"inconclusive: 13.1 µM [inhibitor, single point]"
10,COc1ccc(OC)c2sc(NC(=O)c3ccc(Cl)s3)nc12,inactive
11,COc1ccccc1NC(=S)N(Cc1ccc(C)cc1)Cc1ccccn1,"inconclusive: 16.5 µM [inhibitor, single point]"
12,Cc1ccc(NC(=O)CCNS(=O)(=O)c2ccccc2F)cc1S(=O)(=O)N1CCOCC1,"inconclusive: 4.65 µM [inhibitor, partial curve]"
13,CC(C)C[C@H](NC(=O)[C@@H]1Cc2c([nH]c3ccccc23)C2c3ccccc3C(=O)N21)C(=O)N1CCC[C@@H]1C(=O)O (stereo partly drawn),"inconclusive: 10.4 µM [inhibitor, single point]"
14,O=C(CSc1nnc2ccccn12)N1CCc2ccccc21,inactive
15,O=C1c2ccccc2NC(c2ccccn2)N1NS(=O)(=O)c1ccccc1 (stereo not drawn),"inconclusive: 13.1 µM [inhibitor, single point]"
16,COCCn1c(SCC(=O)c2c(-c3ccccc3)n(C)c3ccccc23)nnc1-c1ccncc1,"inconclusive: 10.4 µM [inhibitor, single point]"
17,CC(c1ccccc1)C1C(C#N)=C(N)OC2=C1C(=O)CCC2 (stereo not drawn),"inconclusive: 7.38 µM [inhibitor, single point]"
18,Cc1ccc(N2CC(C)Cn3c2nc2c3c(=O)n(CC(=O)OCc3ccccc3)c(=O)n2C)cc1C (stereo not drawn),active: 10.4 µM

# Reformatted with tabs: 2 of the compounds above.
row	Structure (SMILES)	Potency
8	CCOC(=O)c1sc(NC(=O)CSc2nc3cccnc3n2C)nc1C	inconclusive: 7.38 µM [inhibitor, partial curve, poor fit]
17	CC(c1ccccc1)C1C(C#N)=C(N)OC2=C1C(=O)CCC2 (stereo not drawn)	inconclusive: 7.38 µM [inhibitor, single point]
